Numbering of substitutions follows the chain as printed. These are yes or no findings as the source states them, for the method shown. Some results given as binding are weak or reduced against the parent protein; the word gives no strength.
Experiments:
Test in all cases: Ligand Surface Binding Assay
ALK2-R206H-Halo (human) = biological target: T1, ALK2-R206H-Halo (human) (UniProt Q04771)
T1 sequence: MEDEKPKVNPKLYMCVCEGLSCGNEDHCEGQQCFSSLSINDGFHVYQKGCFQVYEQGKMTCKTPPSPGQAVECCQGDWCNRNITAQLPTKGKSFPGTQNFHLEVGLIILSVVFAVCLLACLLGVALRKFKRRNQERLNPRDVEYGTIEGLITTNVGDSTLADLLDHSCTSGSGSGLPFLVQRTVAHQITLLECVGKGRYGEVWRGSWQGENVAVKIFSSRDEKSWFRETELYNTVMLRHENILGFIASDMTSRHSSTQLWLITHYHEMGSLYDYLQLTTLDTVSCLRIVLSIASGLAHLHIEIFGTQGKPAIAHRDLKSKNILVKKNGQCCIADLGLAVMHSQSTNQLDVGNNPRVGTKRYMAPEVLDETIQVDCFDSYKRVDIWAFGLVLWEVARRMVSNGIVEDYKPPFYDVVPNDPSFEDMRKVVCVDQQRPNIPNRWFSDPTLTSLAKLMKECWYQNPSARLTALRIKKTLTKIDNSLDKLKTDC

Sequences of proteins named here, by UniProt entry; tags and fusion partners are left off. Residues count along the entry.
UniProt P27037, residues 20-513: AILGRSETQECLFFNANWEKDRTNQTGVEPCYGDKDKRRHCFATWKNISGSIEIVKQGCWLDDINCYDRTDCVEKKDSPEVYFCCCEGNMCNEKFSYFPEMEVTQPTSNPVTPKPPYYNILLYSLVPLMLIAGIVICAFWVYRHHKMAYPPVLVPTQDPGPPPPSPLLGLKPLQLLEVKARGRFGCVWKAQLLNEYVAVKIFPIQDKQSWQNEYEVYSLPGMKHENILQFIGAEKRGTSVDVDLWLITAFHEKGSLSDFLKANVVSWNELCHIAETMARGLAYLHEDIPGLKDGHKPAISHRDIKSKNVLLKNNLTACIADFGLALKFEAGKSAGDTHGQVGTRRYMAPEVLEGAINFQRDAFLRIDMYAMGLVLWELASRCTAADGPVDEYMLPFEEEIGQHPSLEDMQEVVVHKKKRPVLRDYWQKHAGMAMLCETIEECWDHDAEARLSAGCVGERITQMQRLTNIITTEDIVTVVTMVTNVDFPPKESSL
UniProt P37023, residues 22-503: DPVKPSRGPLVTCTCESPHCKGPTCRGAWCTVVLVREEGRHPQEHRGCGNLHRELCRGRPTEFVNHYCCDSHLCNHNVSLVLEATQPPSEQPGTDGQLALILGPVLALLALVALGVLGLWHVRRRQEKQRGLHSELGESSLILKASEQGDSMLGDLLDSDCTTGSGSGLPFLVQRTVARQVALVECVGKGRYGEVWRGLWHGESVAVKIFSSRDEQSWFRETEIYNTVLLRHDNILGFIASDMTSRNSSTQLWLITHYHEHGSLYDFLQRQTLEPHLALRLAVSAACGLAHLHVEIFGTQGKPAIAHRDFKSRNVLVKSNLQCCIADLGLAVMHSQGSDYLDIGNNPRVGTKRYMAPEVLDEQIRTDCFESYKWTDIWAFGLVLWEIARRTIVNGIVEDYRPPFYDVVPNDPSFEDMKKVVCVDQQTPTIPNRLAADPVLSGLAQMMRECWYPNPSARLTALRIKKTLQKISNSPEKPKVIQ

ACVR2A-Halo (human) = ACVR2A-Halo (human) (UniProt P27037)
ALK2-Halo (human) = biological target: T2, ALK2-Halo (human) (UniProt Q04771)
T2 sequence: T1 sequence with H186R

ALK5-Halo (human) = biological target: T3, ALK5-Halo (human) (UniProt P36897)
T3 sequence: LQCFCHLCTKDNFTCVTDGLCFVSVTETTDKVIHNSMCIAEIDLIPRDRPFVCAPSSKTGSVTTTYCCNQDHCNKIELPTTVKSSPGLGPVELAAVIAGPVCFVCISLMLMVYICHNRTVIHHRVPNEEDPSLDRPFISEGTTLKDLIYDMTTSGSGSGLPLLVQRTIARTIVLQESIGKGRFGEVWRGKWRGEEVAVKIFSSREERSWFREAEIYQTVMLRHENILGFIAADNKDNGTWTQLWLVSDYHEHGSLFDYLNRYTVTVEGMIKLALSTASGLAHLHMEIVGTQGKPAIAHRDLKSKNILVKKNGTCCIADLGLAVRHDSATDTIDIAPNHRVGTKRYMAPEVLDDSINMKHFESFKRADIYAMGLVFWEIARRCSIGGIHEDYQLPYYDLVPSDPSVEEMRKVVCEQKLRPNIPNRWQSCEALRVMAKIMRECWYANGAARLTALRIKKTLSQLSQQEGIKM

[1] = biological target: T4, ALK7-Halo (rat (printed as rALK7)) (UniProt P70539)
T4 sequence: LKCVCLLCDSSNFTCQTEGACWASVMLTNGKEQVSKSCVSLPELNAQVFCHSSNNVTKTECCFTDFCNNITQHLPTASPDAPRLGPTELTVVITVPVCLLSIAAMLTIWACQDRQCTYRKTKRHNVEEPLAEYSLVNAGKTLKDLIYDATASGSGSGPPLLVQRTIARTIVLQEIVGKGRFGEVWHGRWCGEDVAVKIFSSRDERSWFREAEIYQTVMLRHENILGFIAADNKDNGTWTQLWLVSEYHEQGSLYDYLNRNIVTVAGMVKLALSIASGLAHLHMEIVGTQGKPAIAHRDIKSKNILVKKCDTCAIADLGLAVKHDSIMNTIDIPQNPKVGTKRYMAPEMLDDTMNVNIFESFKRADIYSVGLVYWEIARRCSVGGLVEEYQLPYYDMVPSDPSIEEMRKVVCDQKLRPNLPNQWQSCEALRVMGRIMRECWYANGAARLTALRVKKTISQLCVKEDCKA

ALK1-Halo (human) = ALK1-Halo (human) (UniProt P37023)

B1: BMP9-SiR-d12 (ligand, UniProt Q9UK05 320-429)
chain: SAGAGSHCQKTSLRVNFEDIGWDSWIIAPKEYEAYECKGGCFFPLADDVTPTKHAIVQTLVHLKFPTKVGKACCVPTKLSPISVLYKDDMGVPTLKYHYEGMSVAECGCR
modifications: SiR-d12 label (NHS-SiR-d12 ester, 5-fold molar excess)
binding (ALK2-R206H-Halo (human)): no binding (tested: 0.3 nM)
binding (ACVR2A-Halo (human)): no binding (tested: 0.3 nM)
binding (ALK2-Halo (human)): no binding (tested: 0.3 nM)
binding (ALK5-Halo (human)): no binding (tested: 0.3 nM)
binding [1]: no binding (tested: 0.3 nM)
binding (ALK1-Halo (human)): binds

From doi:10.1101/2022.03.04.482944
